PubChem BioAssay AID1053208 – Peter MacCallum Cancer Centre | 2014
Assay: 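Synthetic lethal interactions between gene loss and doxorubicin in osteosarcoma cells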 (primary screen). Cell system: mouse osteosarcoma cells, early-passage culture from an engineered mouse model of fibroblastic bone tumour. Knock-down reagent: siRNA pool against mouse genes, 40 nM. Time to read-out: about 120 h (48 h before drug, then 72 h with drug). Treatment: doxorubicin 100 nM for 72 h, roughly 30-40% inhibitory dose. Measured: 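Luminescent ATP signal taken as viability with or without 100 nM doxorubicin for 72 h; mean of two wells set against non-targeting siRNA and turned into robust z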. Scale: viability z-score with doxorubicin: higher = more viable cells under doxorubicin; viability z-score without drug: higher = more viable cells with knock-down alone. Call rule: 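a pool counts as active when its viability z-score with doxorubicin is -2 or below and its z-score without drug lies between -2 and 2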.
This is a random part of about 17,000 deposited reagents. 788 of them (4.7%) were called active. 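Calls rest on z-score classes alone; an extra cut-off of viability at most 70% of control was not applied to them.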 Not all columns of the deposit are shown.

Target gene	PubChem SID	combined z-score class	viability z-score with doxorubicin	viability z-score without drug	call
Erich3	SID152339122	high cell count without drug only	1.46	2.53	inactive
Arf5	SID152265377	no change with or without drug	-0.79	-1.18	inactive
Rgn	SID152305442	no change with or without drug	0.56	-0.51	inactive
Wbp1l	SID152308342	low cell count with doxorubicin only	-2.25	1.18	active
Olfm5	SID152311823	no change with or without drug	0.45	0.67	inactive
Or12d12	SID152269534	no change with or without drug	-1.35	-0.51	inactive
Sdk2	SID152328259	no change with or without drug	1.24	0.84	inactive
Or8j3	SID152330431	no change with or without drug	0.56	-0.17	inactive
Slc31a1	SID152304404	high without drug; low with doxorubicin	-2.7	2.19	inactive
Ddx4	SID152340234	no change with or without drug	-0.11	-0.51	inactive
Fra10ac1	SID152271188	no change with or without drug	-0.79	0.51	inactive
Strip1	SID152300255	high cell count without drug only	-0.9	2.19	inactive
Clcnka	SID152282361	no change with or without drug	-1.69	-0.17	inactive
Tubb4b	SID152290599	no change with or without drug	0	-0.17	inactive
Oas2	SID152289645	no change with or without drug	-0.22	0.51	inactive
Yipf7	SID152279055	high cell count without drug only	-0.9	2.02	inactive
Lyrm2	SID152342274	no change with or without drug	0.9	-0.17	inactive
Npffr2	SID152289678	no change with or without drug	0.11	0.67	inactive
Zfp524	SID152289060	no change with or without drug	0.67	0.84	inactive
Napepld	SID152307128	no change with or without drug	0.22	-0.67	inactive
Vmn1r14	SID152327448	no change with or without drug	-1.8	-1.52	inactive
Rxfp3	SID152265077	no change with or without drug	1.12	0.84	inactive
Serpina5	SID152276843	no change with or without drug	0	0.84	inactive
Shmt1	SID152301314	no change with or without drug	0	0	inactive
Mrm3	SID152263137	no change with or without drug	-0.22	-0.84	inactive
Glp1r	SID152330483	no change with or without drug	-0.9	0.51	inactive
Synm	SID152311705	high cell count without drug only	1.35	2.36	inactive
Slpi	SID152331428	no change with or without drug	1.57	1.18	inactive
Tmsb10	SID152342145	no change with or without drug	0	-0.51	inactive
C630011I23	SID152319014	no change with or without drug	0.9	0.17	inactive
Zfp612	SID152281353	no change with or without drug	0.22	-0.17	inactive
Rbfox1	SID152269002	no change with or without drug	-0.34	-1.18	inactive
Brat1	SID152274057	low cell count with doxorubicin only	-3.37	0.17	active
Slmap	SID152301207	no change with or without drug	-1.12	-1.18	inactive

4 consecutive reagents already listed, quoted:
Target gene	PubChem SID	combined z-score class	viability z-score with doxorubicin	viability z-score without drug	call
Zfp524	SID152289060	no change with or without drug	0.67	0.84	inactive
Napepld	SID152307128	no change with or without drug	0.22	-0.67	inactive
Vmn1r14	SID152327448	no change with or without drug	-1.8	-1.52	inactive
Rxfp3	SID152265077	no change with or without drug	1.12	0.84	inactive
